Experimental data reported in paper PMC11062894, “Protein-based bandpass filters for controlling cellular signaling with chemical inputs” (Nature Chemical Biology, 2023).
Where “and” joins values, the source holds several entries; their conditions need not be identical. Identical values can stand only once. The source gives many values for each of these; only a part stands here.

System: GEMS receptors with CBPA11 (BclXL–LD3 and BclXLhigh variants), STAT3-driven SEAP in HEK293T cells
Assay: GEMS SEAP reporter assay, CBPA11 (BclXLhigh, LD3-v and BclXL-v variants) with A-1155463
Type: cell-based
Parameters: key to SEAP, replicate values / Raw data (SEAP) / Raw data of Figure 5b: SEAP activity in U/L in culture supernatant
Conditions: for Normalized data (SEAP) / Raw data (SEAP): SuppFigure 9a; for SEAP, replicate values: Supplementary Figure 9e
Text: To rationally design a CBP responding to a chemical input, we used BclXL as the druglow receptor, LD3 as the designed binder and a designed BclXL variant as the drughigh receptor (referred to as BclXLhigh) to construct a CBP responsive to BclXL inhibitors (Fig. 4a). To design BclXLhigh, we used a multistate design computational protocol described elsewhere[26] […] Thus, BclXLhigh-v(1–3) were chosen as the functional drughigh receptors, resulting in three A-1155463-controlled CBPs (referred to as CBPA11-v(1–3)) (Fig. 4c–e).
HEK293T cells were seeded in a 96-well plate 24 h before transfection. The transfection mix in each well consisted of 3 ng of constitutive human CMV promoter driven mammalian STAT3 expression vector (PhCMV-STAT3-pA), 30 ng of STAT3-induced reporter expression (OStat3-PhCMVmin-SEAP-pA) and 50 ng of expression vectors for each GEMS receptor chain (PSV40-IgK-(drughigh receptor)-EpoRm-IL-6RBm-pA and PSV40-IgK-(druglow receptor-GGGGSX3-LD3)-EpoRm-IL-6RBm-pA). For the specific drughigh receptor and druglow receptor used in the different cellular assays, they are indicated as wild type or with mutations. Then, plasmid DNA was mixed with 50 μl opti-MEM (Thermo Fisher) and 600 ng of polyethyleneimine (Polysciences, catalog no. 24765-1). For drug treatment experiments, drugs were added 12 h post-transfection and incubated with cells for 24 h before the SEAP reporter detection assay.
SEAP activity (U l^−1) in cell culture supernatants was quantified by kinetic measurements at 405 nm (1 minute per measurement for 30 cycles) of absorbance increase due to phosphatase-mediated hydrolysis of para-nitrophenyl phosphate (pNPP).
Binding affinities of SPR drug competition assays were calculated using three-parameter nonlinear regression in GraphPad Prism (v.8.3.0). Representative data of cell assays are presented as individual values and mean values (bars). n = 3 refers to biological replicates. All IC50 or EC50 values of cell assays reported were calculated using four-parameter nonlinear regression ± s.d. Bandpass features of cutoff concentrations and Bandwidth90% were estimated based on the curve fitted using bell-shaped curve nonlinear regression in GraphPad Prism (v.8.3.0). […]
Supplementary Figure 4: Design, screening and validation of BclXLhigh variants. a) Screening of BclXLhigh variants in the GEMS platform. […]
Dissociation constant measurement of BclXLhigh-v(1-3) and LD3. Equilibrium curves are fitted using […]
BclXLhigh-v1 (purple), BclXLhigh-v2 (blue), […]
a) Bcl2high-based bandpass filter designs were developed and to respond to different concentrations of […]
corresponding inhibitor. c) Screening of Bcl2high-based bandpass filter variants in the GEMS platform.
The designed binder LD3 was fused to the druglow-receptor (PSV40-IgK-Bcl2-LD3-EpoRm-IL-6RBm-pA) in one EpoR chain and Bcl2high variants with the insensitive Bcl2 (iBcl2) as control in the other EpoR chain (PSV40-IgK-Bcl2high-EpoRm-IL-6RBm-pA). HEK293T cells were transfected with indicated […]
the mean of six biological replicates ± s.d., overlaid with a scatter dot plot of the original data points.
(1 picture or pasted object on this page, not shown here)
Supplementary Figure 6: Binding affinities and drug resistances of Bcl2high-v(2,4,5) assessed by […]
a) Measurement of dissociation constants for Bcl2high-v(2,4,5) and LD3 interactions. Equilibrium curves […]
Bcl2high-v(2,4,5) measured by SPR. 5 μM of Bcl2 or indicated variants were mixed with 10 μM of […]
Bcl2high-v2 (red), Bcl2high-v4
Supplementary Figure 7: Screening of LD3 variants in CBPA11-v(1-3) and raw data of CBPA11-v(1,3) with LD3-v3 variant. a-c) Screening of LD3 and LD3-v(1-3) variants in complex with BclXL for more sensitive CBPA11-v1 (a), CBPA11-v2 (b), CBPA11-v3 (c) in the GEMS platform. The LD3 variants replaced the role of LD3 (PSV40-IgK-BclXL-LD3-v(1-3)-EpoRm-IL-6RBm-pA) in one EpoR chain and BclXLhigh-v(1-3) in the other EpoR chain (PSV40-IgK-BclXLhigh-V(1-3)-EpoRm-IL-6RBm-pA). HEK293T cells were transfected with […]

SMILES: CN(C)CC#Cc1ccc(OCCCc2sc(N3CCc4cccc(C(=O)Nc5nc6ccccc6s5)c4C3)nc2C(=O)O)c(F)c1 [A-1155463]
- Normalized data Figure 5e (CBPA11-v3, A-1155463 10000 nM): 13.1316 and 14.3664 and 15.957
- Raw data of Figure 5b (CBPA11-v3-LD3v3, A-1155463 100 nM): 93.696 and 106.99
- Normalized data (SEAP) (BclXL-v1, A-1155463 10 nM): 17.6357
- Raw data (SEAP) (BclXL-v1, A-1155463 10 nM): 16.9788
- Normalized data (SEAP) (BclXL-v1, A-1155463 31.6 nM): 27.0618
- Raw data (SEAP) (BclXL-v1, A-1155463 31.6 nM): 26.0537
- Normalized data (SEAP) (BclXL-v2, A-1155463 10 nM): 37.2494
- Raw data (SEAP) (BclXL-v2, A-1155463 10 nM): 114.053
- Normalized data (SEAP) (BclXL-v2, A-1155463 31.6 nM): 81.2041
- Raw data (SEAP) (BclXL-v2, A-1155463 31.6 nM): 248.637
- Normalized data (SEAP) (BclXL-v3, A-1155463 10 nM): 48.7642
- Raw data (SEAP) (BclXL-v3, A-1155463 10 nM): 4.698
- Normalized data (SEAP) (BclXL-v3, A-1155463 31.6 nM): 43.9045
- Raw data (SEAP) (BclXL-v3, A-1155463 31.6 nM): 4.229
- Normalized data (SEAP) (BclXL, A-1155463 10 nM): 44.3287
- Raw data (SEAP) (BclXL, A-1155463 10 nM): 190.609
- Normalized data (SEAP) (BclXL, A-1155463 31.6 nM): 68.2169
- Raw data (SEAP) (BclXL, A-1155463 31.6 nM): 293.325
- SEAP, replicate values (CBPA11-v3-BclXLv2, A-1155463 10000 nM): 80.3813 and 74.5359 and 94.7265
- SEAP, replicate values (CBPA11-v3, A-1155463 3180 nM): 250.833 and 293.834
- SEAP, replicate values (CBPA11-v3, A-1155463 10000 nM): 69.4522 and 75.5808 and 84.1281
